No constants are given. Whether binding was seen depends on the method and setting. Binding seen in cells or lysates may run through a third protein. For part of these data: A result given as binding can be weak or reduced; the word gives no strength. Sequences can lack the tags named with a protein.
Key:
Test in all cases: split reporter; protein complementation assay with Gaussia princeps luciferase fragments: Gluc1-LEDGF construct or PWWP domain and Gluc2-PIR co-expressed in 293T cells, luminescence of the lysate 24 h after transfection; normalized luminescence ratio (NLR), threshold 3.5
[1] = molecular target: HDGF PWWP domain (aa 41-105), PCA fusion (human)
[2] = molecular target: BS69 PWWP domain (aa 233-325), PCA fusion (human)
[3] = molecular target: PDP1 PWWP domain (aa 41-163), PCA fusion (saccharomyces pombe (so in the source))

B1: Gluc2-TOX4 PIR (domain or fragment, UniProt O94842 203-621)
chain: VEAGKKQKAPKKRKKKDPNEPQKPVSAYALFFRDTQAAIKGQNPNATFGEVSKIVASMWDSLGEEQKQVYKRKTEAAKKEYLKALAAYKDNQECQATVETVELDPAPPSQTPSPPPMATVDPASPAPASIEPPALSPSIVVNSTLSSYVANQASSGAGGQPNITKLIITKQMLPSSITMSQGGMVTVIPATVVTSRGLQLGQTSTATIQPSQQAQIVTRSVLQAAAAAAAAASMQLPPPRLQPPPLQQMPQPPTQQQVTILQQPPPLQAMQQPPPQKVRINLQQQPPPLQIKSVPLPTLKMQTTLVPPTVESSPERPMNNSPEAHTVEAPSPETICEMITDVVPEVESPSQMDVELVSGSPVALSPQPRCVRSGCENPPIVSKDWDNEYCSNECVVKHCRDVFLAWVASRNSNTVVFVK
binding [1]: binds | binding [2]: no binding | binding [3]: no binding

— publication PMC3842248
